This note sets out measurements from PubChem BioAssay AID214 (DTP/NCI, 2004).

SMILES strings stand for the structures. The list is a part of this screen's results and no random one: it gathers some chemical classes. Not every dose and run of a compound is shown. T/C: endpoint of the treated group in % of that of the vehicle group. Schedules are NCI's codes, read here as Q, the interval in days (D) or hours (H), X, the number of doses. Some doses were run more than once; the values are given in rising order. Some T/C values carry the count of animals alive at the toxicity check; where neither a count nor a note follows, no animal had died by that day. Some doses have a count of surviving animals in place of a T/C: the source files T/C as zero there, which appears to mark a toxic dose or a test without result, not a measured value. Counts of survivors are from the toxicity check, whose day is not always given; animals may have died later.

The assay relates to B6C3F1 mice, colon carcinoma 38 s.c., T/C. Nature of the assay: NCI In Vivo Anticancer Drug Screen. Data for tumor model Colon Carcinoma 38 (subcutaneous) in B6C3F1 mice. The following applies: T/C endpoint: median tumor weight (est.), schedule: Q07DX002 (ip), higher T/C = larger tumour; for T/C: evaluated on day 20. As for the experimental part:
The antitumor activity of compounds was measured in mice bearing transplantable tumors. Survival or tumor size were measured and the results are expressed as the measurement made in the treated group (T) divided by the measurement made in the vehicle treated control group (C). The tumor model used in this assay is Colon Carcinoma 38 (subcutaneous) in B6C3F1 mice

Turning to `NC(=O)c1[nH]cnc1/N=N\N(CCCl)CCCl`, the T/C runs as follows: (dose: 31.25 mg/kg/injection, vehicle: saline with Tween-80) 40 % of control; (dose: 62.5 mg/kg/injection, vehicle: saline with Tween-80) 52 and 79 % of control; (dose: 125.0 mg/kg/injection, vehicle: saline with Tween-80) 52 and 56 % of control; (dose: 250.0 mg/kg/injection, vehicle: saline with Tween-80) 12 [9 of 10 alive on day 20] and 27 % of control [9 of 10 alive on day 20]. In addition, the survivor count (dose: 500.0 mg/kg/injection, vehicle: saline with Tween-80) is 1 of 10 on day 20 and 3 of 10 on day 20.
With `ClC1CSC1`, the T/C reads like this: (dose: 50.0 mg/kg/injection, vehicle: saline with Tween-80) 126 % of control [8 of 10 alive on day 20]; (dose: 100.0 mg/kg/injection, vehicle: saline with Tween-80) 86 % of control; (dose: 200.0 mg/kg/injection, vehicle: saline with Tween-80) 81 % of control. In addition, the survivor count is, setting by setting: (dose: 400.0 mg/kg/injection, vehicle: saline with Tween-80) 0 of 10 on day 20; (dose: 800.0 mg/kg/injection, vehicle: saline with Tween-80) 0 of 10 on day 20.
As to `CCN(CC)CCOC(=O)C(O)(c1cccc(OC)c1OC)c1cccc(OC)c1OC`, the T/C (dose: 20.0 mg/kg/injection, vehicle: Klucel (hydroxypropylcellulose) (HPC)) is 112 % of control.
